In paper PMC6378190 one finds binding data, which are given here for 1 substance.

Protein sequences, listed by entry. Tags and fused reporters are not part of them. Lines headed by an entry give the natural chain unless they say otherwise; changes in a name come on top. Residues count along the entry.
UniProt P10997, residues 34-70: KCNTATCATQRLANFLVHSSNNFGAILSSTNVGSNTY
UniProt Q02818: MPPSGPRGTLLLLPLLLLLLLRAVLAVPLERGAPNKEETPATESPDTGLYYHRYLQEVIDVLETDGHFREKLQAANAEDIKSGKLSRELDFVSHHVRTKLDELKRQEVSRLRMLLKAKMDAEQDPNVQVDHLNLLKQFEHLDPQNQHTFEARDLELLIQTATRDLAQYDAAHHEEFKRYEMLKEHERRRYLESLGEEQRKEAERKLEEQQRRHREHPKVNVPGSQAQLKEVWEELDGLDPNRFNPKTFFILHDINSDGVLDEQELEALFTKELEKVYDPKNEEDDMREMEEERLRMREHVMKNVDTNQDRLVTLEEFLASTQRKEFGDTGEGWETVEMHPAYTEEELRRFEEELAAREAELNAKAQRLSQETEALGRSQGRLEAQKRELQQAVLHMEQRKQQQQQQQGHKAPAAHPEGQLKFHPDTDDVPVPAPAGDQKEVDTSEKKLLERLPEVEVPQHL

These are yes or no findings as the source states them, for the method shown. A result given as binding can be weak or reduced; the word gives no strength.

The assay deals with human islet amyloid polypeptide (hIAPP) (human) (UniProt P10997). Briefly: SEC; mtNUCB1 (10 µmol/L) and hIAPP (33 µmol/L) co-incubated at 37°C for 3 hours while stirred; Superdex200 26/60 PG; 20 mmol/L sodium phosphate, pH 7.6, 150 mmol/L NaCl; peaks tested by dot blot with α‐hIAPP and α‐NUCB1 antibodies; both purified.

For “Ca^2+‐free sNUCB1 mutant (mtNUCB1) (from UniProt Q02818)”, the binding entry is listed as “binds”.
